Experimental data reported in article PMC8510601, “Discovery of benzamide-hydroxypyridinone hybrids as potent multi-targeting agents for the treatment of Alzheimer's disease” (Journal of Enzyme Inhibition and Medicinal Chemistry, 2021).

Assay: in vitro
Conditions: PAMPA

Work on `CC(C)NCC(O)COc1ccc(CC(N)=O)cc1` (stereo not shown) [Atenolol] yielded a Papp at 6 h, 25 μg/mL of 0.45 ± 0.25 ×10⁻⁶ cm/s.
